# Data from PubChem BioAssay.
# Values joined by “and” are separate entries in the source; they are usually repeats but may differ in a detail not shown here. Identical values can stand only once. This is one part of the list. Potency and affinity values are given separately. Where no call is shown, the source marks the result inconclusive.
# Assays:
# [1] = Drosophila SCA1 whole organism dose response for polyglutamine toxicity reduction (AID 1595); conditions: Drosophila SCA1 polyglutamine model, at 1 µM, stronger effect = higher value
# [2] = PubChem AID 1597; conditions: Drosophila SCA1 polyglutamine model, at 1 µM, stronger effect = higher value
Structure (SMILES),suppression of toxicity [1],suppression of toxicity [2]
CNC(C)[C@@H]1CC[C@@H](N)[C@@H](OC2[C@@H](N)C[C@@H](N)[C@H](OC3OC[C@](C)(O)[C@H](NC)[C@H]3O)[C@H]2O)O1 (some centres not stated),4.29,5.71
CSCCC(NC=O)C(=O)NC(C)C(=O)O (configuration not stated),4.29,15
CN(C)C(=O)Oc1cccc([N+](C)(C)C)c1,5.71 and 1.43,11.4 and 3.58
CCN(CC)CCOc1ccc2c(c1)C(=O)c1cc(OCCN(CC)CC)ccc1-2,1.43,10.7
CC(N)C(=O)NC(Cc1ccccc1)C(=O)O (configuration not stated),0,0
NC(N)=NC(N)=Nc1ccccc1,1.43,0.715
CN(C)CCC(c1ccccc1)c1ccccn1 (configuration not stated),4.29,10
C#C[C@]1(O)CCC2C3CCc4cc(O)ccc4C3CC[C@@]21C (some centres not stated),0,1.43
COC(=O)C1[C@H]2C[C@H]3c4[nH]c5ccccc5c4CCN3C[C@@H]2CC[C@@H]1O (some centres not stated),1.43,4.29
COc1cc(Cc2cnc(N)nc2N)cc(OC)c1OC,1.43,2.15
CCCCc1oc2ccccc2c1C(=O)c1cc(I)c(OCCN(CC)CC)c(I)c1,2.86,2.15
CC(=O)OCC(=O)[C@@]12OC(C)(C)O[C@@H]1C[C@H]1C3C[C@H](F)C4=CC(=O)C=CC4(C)[C@@]3(F)[C@@H](O)C[C@@]12C (some centres not stated),0,0.715
NCCCC(N)CC(=O)NCC1NC(=O)C(CO)NC(=O)C(N)CNC(=O)C(C2CCN=C(N)N2)NC(=O)/C(=C/NC(N)=O)NC1=O (configuration not stated),8.57,7.14
Cc1cc2cc3c(C)cc(=O)oc3c(C)c2o1,0,12.1
C=CCc1ccc(O)c(OC)c1,5.71,12.9
C[C@]12C=CC(=O)C=C1CCC1C3C[C@@H](O)[C@](O)(C(=O)CO)[C@@]3(C)C[C@H](O)[C@@]12F (some centres not stated),1.43,5
Cc1cc(O)cc(C)c1Cl,7.14,5
COc1ccc(CN(CCN(C)C)c2ncccn2)cc1,0,8.57
CC(=O)OCC(COC(C)=O)OC(C)=O,17.1,14.3
CCCC(C(=O)OCCN(CC)CC)(c1ccccc1)c1ccccc1,0,2.15
CN(C)c1ccc(O)c2c1C[C@H]1C[C@H]3[C@H](N(C)C)C(=O)C(C(N)=O)=C(O)[C@@]3(O)C(=O)C1=C2O,0,2.85

Structure (SMILES),suppression of toxicity [1],suppression of toxicity [2]
NS(=O)(=O)c1cc2c(cc1C(F)(F)F)NCNS2(=O)=O,0,3.58
O=C(/C=C/C=C/c1ccc2c(c1)OCO2)N1CCCCC1,11.4,9.29
COc1ccc2c(c1)c(CC(=O)OCC(=O)O)c(C)n2C(=O)c1ccc(Cl)cc1,2.86,6.43
CN/C(=C\[N+](=O)[O-])NCCSCc1ccc(CN(C)C)o1,0,0
CCN(CC)CCOC(=O)C(Cc1cccc2ccccc12)CC1CCCO1 (configuration not stated),2.86,7.86
CC(C(=O)O)c1ccc(N2Cc3ccccc3C2=O)cc1 (configuration not stated),2.85,7.86
Nc1nc2c(c(=O)[nH]1)N(C=O)C(CNc1ccc(C(=O)N[C@@H](CCC(=O)O)C(=O)O)cc1)CN2 (some centres not stated),2.86,2.86
NC(=O)c1ccc[n+]([C@@H]2O[C@H](COP(=O)([O-])OP(=O)(O)OC[C@H]3O[C@@H](n4cnc5c(N)ncnc54)[C@H](O)[C@@H]3O)[C@@H](O)[C@H]2O)c1,2.85,9.29
O=c1[nH]cnc2[nH]ncc12,10,10
NCC1OC(OC2C(N)CC(N)C(OC3OC(CO)C(O)C(N)C3O)C2O)C(N)C(O)C1O (configuration not stated),0,0.715
COc1cc(OC)c2ccc(=O)oc2c1,8.57,2.88
CC(=O)OCC(=O)[C@@]1(O)[C@H](C)CC2C3CCC4=CC(=O)C=C[C@]4(C)[C@@]3(F)[C@@H](O)C[C@@]21C (some centres not stated),0,0
CC(=O)[C@@]1(O)CCC2C3C=C(Cl)C4=CC(=O)[C@@H]5CC5[C@]4(C)C3CC[C@@]21C (some centres not stated),2.85,3.57
NCCSSCCN,1.43,1.43
CCC[C@@H]1C[C@@H](C(=O)N[C@H]([C@H]2O[C@H](SC)[C@H](O)[C@@H](O)[C@H]2O)[C@H](C)O)N(C)C1,2.86,5
CN(C)[C@@H]1C(=O)C(C(N)=O)=C(O)[C@@]2(O)C(=O)C3=C(O)c4c(O)ccc(Cl)c4[C@@H](O)[C@H]3C[C@@H]12,0,1.43
NCCCC(=O)O,2.85,0
CC(=O)OCC(=O)[C@@]1(O)CCC2C3CCC4=CC(=O)CC[C@]4(C)C3C(=O)C[C@@]21C (some centres not stated),1.43,4.29
OC(CCN1CCCC1)(c1ccccc1)C1CCCCC1 (configuration not stated),1.43,6.42
CN(C)CCCN1c2ccccc2Sc2ccccc21,0,0
COc1ccc2c(c1OC)C(=O)OC2[C@H]1c2c(cc3c(c2OC)OCO3)CCN1C (some centres not stated),5.71,7.89

Structure (SMILES),suppression of toxicity [1],suppression of toxicity [2]
N=c1nc(N2CCCCC2)cc(N)n1O,14.3,15
CC(C)NCC(O)COc1ccc(CC(N)=O)cc1 (configuration not stated),0,0
O=C1NCC2(CCN(CCc3ccccc3)CC2)O1,5.71,5.71
CC(C)(S)C(N)C(=O)O (configuration not stated),2.86,4.29
CCn1cc(C(=O)O)c(=O)c2cc(F)c(N3CCNCC3)nc21,0,4.29
Oc1c(Cl)cc(Cl)cc1Sc1cc(Cl)cc(Cl)c1O,2.86,2.86
NNc1nncc2ccccc12,1.43,2.15
Cc1ccccc1OCC(O)CO (configuration not stated),0,3.57
CCN(CC)CCOCCOC(=O)C1(c2ccccc2)CCCC1,2.85,6.43
Nc1ccc(N=Nc2ccccc2)c(N)n1,1.43,10.7
CC1(C)S[C@@H]2[C@H](NC(=O)C(C(=O)O)c3ccccc3)C(=O)N2[C@H]1C(=O)O (some centres not stated),0,3.58
CC(C)NNC(=O)c1ccncc1,7.14,11.4
CC(COc1ccccc1)NC(C)[C@H](O)c1ccc(O)cc1 (some centres not stated),0,5
CCC1(C)CC(=O)NC1=O (configuration not stated),5.79,6.52
CC/C(=C(\c1ccccc1)c1ccc(OCCN(C)C)cc1)c1ccccc1,1.43,1.43
NC(=O)c1ccc[n+]([C@@H]2O[C@H](COP(=O)([O-])OP(=O)(O)OC[C@H]3O[C@@H](n4cnc5c(N)ncnc54)[C@H](OP(=O)(O)O)[C@@H]3O)[C@@H](O)[C@H]2O)c1,0,2.15
CN(C)CCOC(C)(c1ccccc1)c1ccccn1 (configuration not stated),1.43,3.58
COc1ccc(Cl)cc1C(=O)NCCc1ccc(S(=O)(=O)NC(=O)NC2CCCCC2)cc1,2.85,3.58
CC(=O)Oc1ccccc1C(=O)O,7.14,3.57
COC(=O)Nc1nc2ccc(Sc3ccccc3)cc2[nH]1,2.85,7.14
Nc1ccc(S(=O)(=O)Nc2cnc3ccccc3n2)cc1,4.29,4.29

Structure (SMILES),suppression of toxicity [1],suppression of toxicity [2]
c1ccc2c(CC3=NCCN3)cccc2c1,1.43,3.57
CCN(CC)CCOC(=O)c1ccc(N)cc1,1.43,6.43
CCCCCC(C)N (configuration not stated),2.85,2.15
NC(=O)N/N=C/c1ccc([N+](=O)[O-])o1,2.85,5.71
CN1Cc2c(N)cccc2C(c2ccccc2)C1 (configuration not stated),8.57,10
C=CC[C@@H]1/C=C(\C)C[C@H](C)C[C@H](OC)[C@H]2O[C@@](O)(C(=O)C(=O)N3CCCC[C@H]3C(=O)O[C@H](/C(C)=C/[C@@H]3CC[C@@H](O)[C@H](OC)C3)[C@H](C)[C@@H](O)CC1=O)[C@H](C)C[C@@H]2OC,0,0
CC1=C(/C=C/C(C)=C/C=C/C(C)=C/C=C/C=C(C)/C=C/C=C(C)/C=C/C2=C(C)CCCC2(C)C)C(C)(C)CCC1,0,7.91
CC1=C2C(=CO[C@H](C)[C@H]2C)C(=O)C(C(=O)O)=C1O,17.1,20.7
C[N+]12CCC(CC1)C(OC(=O)C(O)(c1ccccc1)c1ccccc1)C2 (configuration not stated),1.43,5
CCCn1c(=O)c2[nH]c(C3CCCC3)nc2n(CCC)c1=O,1.43,6.43
N[C@@H](Cc1c[nH]c2ccccc12)C(=O)O,5.71,5.71
CCCCCCc1ccc(O)cc1O,5.74,10.1
CCCCOc1ccc(OCCCN2CCOCC2)cc1,11.4,15
CCC[C@@H]1C[C@@H](C(=O)NC(C(C)Cl)C2O[C@H](SC)[C@H](O)[C@@H](O)[C@H]2O)N(C)C1 (some centres not stated),1.43,2.15
CN(Cc1cnc2nc(N)nc(N)c2n1)c1ccc(C(=O)N[C@@H](CCC(=O)O)C(=O)O)cc1,5.71,6.42
CC[C@@H](CO)NCCN[C@@H](CC)CO,18.6,0.715
O=C1N=C(O)CN1/N=C/c1ccc(-c2ccc([N+](=O)[O-])cc2)o1,7.14,12.9
NS(=O)(=O)c1cc2c(cc1Cl)NC(C1CC3C=CC1C3)NS2(=O)=O (configuration not stated),1.43,4.29
